Experimental data reported in PubChem BioAssay AID504648 (National Center for Advancing Translational Sciences (NCATS), 2011).
Screen size: about 390,000 compounds; about 610 (0.16%) were called active. The inconclusive results got no clear call from the source; some entries with a clear call stand among them for comparison. The call rests on the fitted dose curve; in most records, active means well fitted inhibition curve with a large enough effect; inconclusive means small, poorly fitted or top-dose-only effect, or effect the other way, or another doubt; inactive means no such curve, though single readings can be large or run the other way. Potencies beside an inconclusive call are fits to weak or partial responses and may not hold up.

assay: Nrf2 qHTS screen for inhibitors: counterscreen for cytotoxicity; conditions: A549 ARE-Fluc cells, CellTiter-Fluor viability, 18-24 h; activity change, negative = cytotoxicity: at 46 µM (top of the series)
How it was run: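 A549 ARE-Fluc cells in 5% FBS OPTI-MEM, 5000 cells/well, rested 2 h then exposed to compounds in concentration-response for 18-24 h at 37 °C. Viability by CellTiter-Fluor fluorescence (Ex 405/Em 525) after 30 min; luciferase luminescence (BugLite, 15 min, RT) read afterwards.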
On the % scale 0 is the no-effect control and ±100 the full control effect; potency means the concentration at half of the fitted maximal effect.

SMILES | Potency | activity change, negative = cytotoxicity
O=S(=O)(c1ccc2nc(Nc3ccc(Br)cc3F)ccc2c1)N1CCCC1 | inconclusive: 23.1 µM [activator, partial curve, poor fit] | –
COc1cccc(/C=C/c2nc(C#N)c(N3CCCCCC3)o2)c1 | inconclusive: 18.4 µM [activator, partial curve, poor fit] | –
CCN(CC)c1ccc(NC2=C(Cl)C(=O)c3ccccc3C2=O)cc1 | active: 20.6 µM | –
O=C(Nc1ccc(OCc2cc(=O)n3c4c(sc3n2)CCCC4)cc1)c1ccc(F)cc1 | – | inactive: -0.0061%
COc1cc(C2NC(=O)NC(C)=C2C(=O)OCc2ccccc2)ccc1O (stereo not drawn) | inconclusive: 29.1 µM [activator, partial curve, poor fit] | –
Cc1cc(=O)n(-c2ccc3ccccc3n2)[nH]1 | inconclusive: 1.84 µM [falling, partial curve, poor fit] | –
c1ccc(-c2cnc(-c3ccccc3)nn2)cc1 | – | inactive: 9.21%
O=C(CCl)N(c1ccccc1)c1ccccc1 | – | inactive: -2.47%
COc1ccc2c(c1)C(=NN)c1cc(OC)ccc1-2 | – | inactive: -0.227%
Cc1nn(-c2ccccc2)c(-n2cccc2)c1C(=O)NCCc1ccc(Cl)cc1 | – | inactive: 1.25%
COc1cc(NC(=O)C(=O)NCCN(C)C)c(OC)cc1Cl | inconclusive: 16.4 µM [activator, partial curve, poor fit] | –
O=C(NC(Nc1nc2ccc([N+](=O)[O-])cc2s1)(C(F)(F)F)C(F)(F)F)c1ccccc1Cl | active: 5.8 µM | –
COC(=O)[C@@]12CCCCN1[C@H](c1ccc(-c3ccc(Cl)c(Cl)c3)c(OC)c1)[C@@H]1C(=O)N(C)C(=O)[C@@H]12 | – | inactive: -13.6%
CC(=O)Oc1ccc(-c2ccc(C(=O)Nc3cccc(S(=O)(=O)N4CCOCC4)c3)cc2)cc1 | inconclusive: 18.4 µM [falling, partial curve] | –
O=C1C(NS(=O)(=O)c2cccs2)=C(N2CCN(c3cccc(Cl)c3)CC2)C(=O)c2ccccc21 | inconclusive: 20.6 µM [falling, single point] | –
N#Cc1ccccc1NC(=O)c1ccccc1OCC(=O)Nc1ccc2c(c1)oc1ccccc12 | – | inactive: 2.7%
O=C(c1cc([N+](=O)[O-])ccc1Cl)N1CCN(c2ccc([N+](=O)[O-])cc2)CC1 | inconclusive: 29.1 µM [falling, single point] | –
S=C(Nc1ccccc1)Nc1ccc(OCc2ccc(Cl)cc2Cl)cc1 | – | inactive: 3.31%
O=C(Nc1ccc(N2CCOCC2)cc1)Nc1ccc2nc(-c3ccco3)c(-c3ccco3)nc2c1 | inconclusive: 5.8 µM [falling, single point] | –
CC(C)=CCc1c2c(c3occ(-c4ccc(O)cc4)c(=O)c3c1O)C=CC(C)(C)O2 | inconclusive: 29.1 µM [falling, single point] | –
C/C(=N/Nc1ccccc1[N+](=O)[O-])c1ccc([N+](=O)[O-])cc1 | – | inactive: 10%
COc1ccc(C(=O)c2sc(Nc3ccccc3)c(C(=O)Nc3ccc(OC)c(OC)c3)c2N)cc1 | inconclusive: 20.6 µM [falling, partial curve, poor fit] | –

Some of the entries so far, tab-delimited:
SMILES	Potency	activity change, negative = cytotoxicity
CCN(CC)c1ccc(NC2=C(Cl)C(=O)c3ccccc3C2=O)cc1	active: 20.6 µM	–
O=C(Nc1ccc(OCc2cc(=O)n3c4c(sc3n2)CCCC4)cc1)c1ccc(F)cc1	–	inactive: -0.0061%
COc1cc(C2NC(=O)NC(C)=C2C(=O)OCc2ccccc2)ccc1O (stereo not drawn)	inconclusive: 29.1 µM [activator, partial curve, poor fit]	–
Cc1cc(=O)n(-c2ccc3ccccc3n2)[nH]1	inconclusive: 1.84 µM [falling, partial curve, poor fit]	–
c1ccc(-c2cnc(-c3ccccc3)nn2)cc1	–	inactive: 9.21%
O=C(CCl)N(c1ccccc1)c1ccccc1	–	inactive: -2.47%
COc1ccc2c(c1)C(=NN)c1cc(OC)ccc1-2	–	inactive: -0.227%
Cc1nn(-c2ccccc2)c(-n2cccc2)c1C(=O)NCCc1ccc(Cl)cc1	–	inactive: 1.25%
COc1cc(NC(=O)C(=O)NCCN(C)C)c(OC)cc1Cl	inconclusive: 16.4 µM [activator, partial curve, poor fit]	–
O=C(NC(Nc1nc2ccc([N+](=O)[O-])cc2s1)(C(F)(F)F)C(F)(F)F)c1ccccc1Cl	active: 5.8 µM	–
COC(=O)[C@@]12CCCCN1[C@H](c1ccc(-c3ccc(Cl)c(Cl)c3)c(OC)c1)[C@@H]1C(=O)N(C)C(=O)[C@@H]12	–	inactive: -13.6%

Next part.

SMILES | Potency | activity change, negative = cytotoxicity
Cc1nn(C)c2c1c(C(F)(F)F)cc(=O)n2CC(=O)NCCC(C)C | – | inactive: 1.55%
Cc1cc(SCC(=O)c2ccc(O)c(O)c2)nc2ccccc12 | inconclusive: 18.4 µM [falling, single point] | –
CC(C)N1C(=O)/C(=C\c2nc3ccccc3c(=O)n2-c2ccccc2)c2ccccc21 | inconclusive: 29.1 µM [falling, single point] | –
CCCCCCCCOc1ccc(C(=O)O)cc1 | inconclusive: 20.6 µM [falling, partial curve, poor fit] | –
CCN1CCCC1CNC(=O)C1CCN(Cc2nc(-c3cccc(Br)c3)oc2C)CC1 (stereo not drawn) | inconclusive: 16.4 µM [falling, single point] | –
CCc1ccc(OCC(=O)NC(NC(=S)Nc2ccccc2)C(Cl)(Cl)Cl)cc1 (stereo not drawn) | – | inactive: -13.6%
COc1cc(/C=C2\SC(=Nc3ccccc3)NC2=O)cc(Cl)c1O | inconclusive: 16.4 µM [activator, single point] | –
CCCCC(=O)NC(NC(=S)N1CCCCCC1)C(Cl)(Cl)Cl (stereo not drawn) | inconclusive: 20.6 µM [activator, partial curve, poor fit] | –
Cn1c(CNC(=O)C(Cc2ccccc2)NC(=O)c2ccccc2F)cc(=O)n(C)c1=O (stereo not drawn) | inconclusive: 6.51 µM [falling, partial curve, poor fit] | –
CCc1cccc(N(C(=O)c2csnn2)C(C(=O)NC(C)(C)CC)c2ccccn2)c1 (stereo not drawn) | inconclusive: 29.1 µM [activator, partial curve, poor fit] | –
Cn1c(=O)c(C(=O)CCl)c(N)n(Cc2ccccc2)c1=O | inconclusive: 29.1 µM [falling, single point] | –
CCCCOC(=O)/C=C/c1c(C)[nH]c(=O)[nH]c1=O | – | inactive: -4.71%
Cc1ccc(S(=O)(=O)c2nc(Nc3ccccc3)sc2Cl)cc1 | – | inactive: -17.9%
CCOC(=O)c1c(NC(=O)C2c3ccccc3Oc3ccccc32)sc(C(N)=O)c1C | inconclusive: 32.6 µM [falling, partial curve, poor fit] | –
COc1ccc(NC(=O)CCS(=O)(=O)c2ccc3c(c2)NC(=O)C(C)S3)cc1OC (stereo not drawn) | – | inactive: 11.1%
COc1ccc(OC)c(NC(=O)CSc2ncnc3c2cnn3-c2ccccc2Cl)c1 | inconclusive: 29.1 µM [falling, single point] | –
COC(=O)c1ccc(N2CCC(c3cc(-c4ccc(OC)cc4)n[nH]3)CC2)c([N+](=O)[O-])c1 | – | inactive: -29.6%
O=C1N=c2ccccc2=C1c1sc(NS(=O)(=O)Cc2ccccc2)nc1O | inconclusive: 32.6 µM [falling, partial curve, poor fit] | –
CCc1ccc2[nH]c(=O)c(CN(Cc3ccccc3)Cc3nnnn3Cc3ccco3)cc2c1 | inconclusive: 23.1 µM [falling, single point] | –
c1ccc2c(c1)OC(CCCN1CCCCC1)c1ccccc1S2 (stereo not drawn) | inconclusive: 29.1 µM [falling, single point] | –
COc1cccc(CNC(=O)Cc2csc(NC(=O)Nc3ccccc3OC)n2)c1 | inconclusive: 32.6 µM [falling, partial curve, poor fit] | –
